Data reported in PMC6726731, “A pretargeted multimodal approach for image-guided resection in a xenograft model of colorectal cancer” (EJNMMI Research, 2019).

Experiment: Biodistribution (γ-counting) in s.c. CEA-negative SK-RC-52 control tumors after TF2 pretargeting
Conditions: female, BALB/cAnNRj-Foxn1^nu/nu nude, mouse, in vivo, iv, total radioactivity
Excerpt: Female BALB/cAnNRj-Foxn1^nu/nu nude mice (7–9 weeks-old, 18–22-g body weight; Janvier), housed in individually ventilated cages (5 mice per cage) under non-sterile standard conditions with free access to standard animal chow and water, were adapted to laboratory conditions for 1 week before experimental use. For the biodistribution and microSPECT/CT experiments, mice were subcutaneously inoculated with 2 × 10^6 LS174T cells (left flank) and 2 × 10^6 SK-RC-52 cells (right flank) both suspended in 200 μL RPMI-1640 medium. For the image-guided resection experiment, intraperitoneal tumor growth was induced by an intraperitoneal injection of 3 × 10^5 LS174T cells suspended in 200 μL RPMI-1640 medium. […]
Three different dose levels (0, 0.8, and 8 nmol) of TF2 or controls were tested with a 1:20 TF2:HSG-peptide ratio of each HSG-peptide in two subsets of 30 mice (5 mice per group). […] For this purpose, tissues of interest (tumor, muscle, lung, spleen, kidney, liver, pancreas, stomach, and duodenum) were dissected and weighed after which activity was measured in a shielded 3-in.-well-type γ-counter (Perkin-Elmer, Boston, MA, USA). […] For calculation of the uptake of activity in each tissue as a fraction of the injected activity, three aliquots of the injection dose were counted in the γ-counter simultaneously.

tissue uptake at 24 h: 0.07 %ID/g
SMILES: NC(=O)[C@@H](CCCCNC(=O)CNC(=O)CCC(=O)NCCc1c[nH]cn1)NC(=O)[C@@H](CCC(=O)O)NC(=O)[C@@H](CCCCNC(=O)CNC(=O)CCC(=O)NCCc1c[nH]cn1)NC(=O)[C@@H](Cc1ccc(O)cc1)NC(=O)CN1CCN(CC(=O)O)CCN(CC(=O)O)CCN(CC(=O)O)CC1 [^111In-IMP-288, metal not drawn]
